Primary screen of a compound library

By UniProt entry, the sequences of proteins in these tests, tags left out.
UniProt E9BF75, entry or part of it: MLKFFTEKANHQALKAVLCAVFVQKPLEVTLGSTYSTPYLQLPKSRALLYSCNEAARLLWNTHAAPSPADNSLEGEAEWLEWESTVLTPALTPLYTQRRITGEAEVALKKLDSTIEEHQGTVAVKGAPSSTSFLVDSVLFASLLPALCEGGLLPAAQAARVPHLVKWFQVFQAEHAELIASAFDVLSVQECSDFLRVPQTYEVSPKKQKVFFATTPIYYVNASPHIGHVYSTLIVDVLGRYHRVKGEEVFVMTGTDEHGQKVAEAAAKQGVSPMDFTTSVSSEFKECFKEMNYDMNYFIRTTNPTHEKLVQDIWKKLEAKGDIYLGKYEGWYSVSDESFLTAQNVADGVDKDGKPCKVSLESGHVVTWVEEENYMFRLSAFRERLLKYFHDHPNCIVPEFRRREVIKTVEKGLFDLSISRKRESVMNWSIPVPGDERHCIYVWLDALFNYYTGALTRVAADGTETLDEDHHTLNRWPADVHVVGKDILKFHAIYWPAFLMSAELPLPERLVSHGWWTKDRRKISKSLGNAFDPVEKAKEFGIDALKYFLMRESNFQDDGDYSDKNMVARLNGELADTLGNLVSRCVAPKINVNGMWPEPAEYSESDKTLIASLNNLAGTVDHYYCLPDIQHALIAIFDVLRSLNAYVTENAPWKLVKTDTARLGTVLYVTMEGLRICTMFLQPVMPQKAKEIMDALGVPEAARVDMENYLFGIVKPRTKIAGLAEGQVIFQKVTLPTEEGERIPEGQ

The values are deposited in ChEMBL (CHEMBL3988442, “University of Dundee, Small-Polar-MMV Screening Library” (2021)).

Mtb heat-shock: 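Assay on Mycobacterium tuberculosis, filed only as a heat shock assay from Cornell; the read-out is not stated. The concentration is filed as 10 mM, unlikely as a test dose, so the dose is not known. Higher reads as stronger inhibition (inferred: compounds with an IC50 in retests scored well above the rest). Size under these conditions: about 69,000 compounds, about 930 of them at 50% or above in at least one test.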
LdMetRS: 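Methionyl-tRNA synthetase (putative), Leishmania donovani (UniProt E9BF75). Primary screen of methionyl-tRNA synthetase; the read-out is not stated. The test concentration is not given. The values are filed as inhibition. About 68,000 compounds were tested under these conditions; 0.035% (about 24) showed 50% or more at least once.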
Mtb growth Cornell: 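Whole-cell assay for inhibitors of Mycobacterium tuberculosis growth, labelled Cornell in the record; the read-out is not stated. The concentration is filed as 10 mM, unlikely as a test dose, so the dose is not known. Higher means stronger inhibition (inferred from two other growth screens of the library). About 53,000 compounds were tested under these conditions; 1.7% (about 900) showed 50% or more at least once.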

All values are in %.
The record does not define 0% and 100%; most values in the screen are far below 50% and negative numbers occur (in some assays of this library far below -100).
Compounds were drawn at random from those tested, without regard to their results.

* O=S(=O)(NC1CCC2(CC1)OCCO2)c1ccccc1Br | Mtb heat-shock: 18.14%; LdMetRS: 6.522%; Mtb growth Cornell: 9.266%
* Cc1noc(C)c1CCCNC(=O)Nc1ccc2c(c1)COC2 | Mtb heat-shock: -36.82%; LdMetRS: 1.394%
* O=C(O)C(F)(F)F.[H][C@@]12CCCO[C@]1([H])[C@H](NC(=O)c1cnn(C)c1)CN2Cc1cccs1 | Mtb heat-shock: -2.849%; Mtb growth Cornell: 30%
* CC1N(C)C(=O)COC12CCN(C(=O)Cc1ccsc1)CC2 (configuration not stated) | Mtb heat-shock: -31.46%; LdMetRS: 8.333%; Mtb growth Cornell: 28.47%
* Cc1noc([C@]23COC[C@H]2CN(C(=O)Cc2ccsc2)C3)n1 | LdMetRS: 17.66%
* CC(C)OCC(=O)N1CCCN(Cc2ccc(C#N)cc2)CC1 | Mtb heat-shock: -2.714%; LdMetRS: 20.41%
* CN(C)c1nccc(-c2c[nH][nH]c2=O)n1 | Mtb heat-shock: -14.52%; LdMetRS: 15.29%; Mtb growth Cornell: 14.03%
* Cc1ccc(C2CSCCN2C(=O)c2cc(C(N)=O)cs2)o1 (configuration not stated) | Mtb heat-shock: 3.53%; LdMetRS: 6.954%; Mtb growth Cornell: 23.87%
* Cc1nc(C)n(CC2CCCN(CCCS(=O)(=O)N(C)C)C2)n1 (configuration not stated) | Mtb heat-shock: -18.26%; LdMetRS: 9.03%; Mtb growth Cornell: 2.117%
* Oc1nnc(-c2cccs2)c2sc(N3CCCC3)nc12 | Mtb heat-shock: 3.124%; LdMetRS: 4.969%; Mtb growth Cornell: -4.279%
* Cn1cccc1C(=O)N1CC2(CCN(C(=O)c3cccnc3)C2)C1 | LdMetRS: 16.54%
* Cc1ccc2c(n1)N(CCn1cccn1)CCN(C(=O)NC(C)C)C2 | Mtb heat-shock: -23.14%; LdMetRS: 9.137%
* CN(C)c1ncc(-c2cc(C(=O)NCCO)n(CC3CC3)c2)cn1 | LdMetRS: 10.82%
* O=C(c1ccc(O)cn1)N1CCOC(Cc2cccc(C(F)(F)F)c2)C1 (configuration not stated) | Mtb heat-shock: -6.078%; LdMetRS: -0.6849%; Mtb growth Cornell: 43.23%
* Cn1nnnc1SCCNC(=O)C1CCN(C(=O)C2CCCC2)CC1 | Mtb heat-shock: 13.95%; LdMetRS: 9.429%; Mtb growth Cornell: 1.874%
* Fc1cccc(-c2nnn3c2COC(CNCc2nccs2)C3)c1 (configuration not stated) | LdMetRS: 2.801%
* CN(Cc1csc2ccccc12)C(=O)NC1CCS(=O)(=O)C1 (configuration not stated) | Mtb heat-shock: -9.063%; LdMetRS: 18.82%
* O=C(O)C(F)(F)F.[H][C@@]12CCN(c3cccnc3)C[C@]1([H])CN(C(=O)c1cccc(C)c1)C2 | Mtb heat-shock: -9.263%
* CCN(CC)C(=O)CN1CCC2(C=Cc3cc(Cl)c(C)cc3O2)CC1 | Mtb heat-shock: 14.56%; LdMetRS: 15.41%; Mtb growth Cornell: 52.2%
* CC(C)SCCn1ccc2[nH]c(=O)c(C#N)cc2c1=O | Mtb heat-shock: 14.6%; LdMetRS: 10.67%
* Cc1cccc(-c2noc(CN3CCC(c4ccn[nH]4)CC3)n2)c1 | Mtb heat-shock: -23.2%; LdMetRS: 11.04%; Mtb growth Cornell: 3.95%
* N#Cc1c(F)cccc1Nc1cnn(CC(O)CN2CCOCC2)c1 (configuration not stated) | Mtb heat-shock: -17.17%; LdMetRS: 20.96%; Mtb growth Cornell: 3.259%
* [H][C@@]12CC[C@@](O)(c3ccc(C)cn3)[C@]1([H])CN(Cc1ccncc1)C2 | Mtb heat-shock: -16.09%; Mtb growth Cornell: -51.78%
* Cc1nc(C)n(CC2CCCN2CC(=O)NCCc2ccccc2)n1 (configuration not stated) | Mtb heat-shock: 14.88%; LdMetRS: 11.33%; Mtb growth Cornell: 6.189%
* CC(C)(C)c1nc(CN2CCCC2c2nnc3ccccn23)no1 (configuration not stated) | Mtb heat-shock: 0.5342%; LdMetRS: 14.86%; Mtb growth Cornell: 3.027%
* Cc1nc(CN2C(=O)CC[C@@H]3[C@H]2CCN3C(=O)c2ccc[nH]2)cs1 | LdMetRS: 9.841%
* C[C@H]1CN(C(=O)N(C)C)C[C@@]12CCN(c1ccsc1)C2=O | Mtb heat-shock: 0.197%; LdMetRS: 13.43%; Mtb growth Cornell: -27.37%
* CN1CCN(Cc2cn3c(n2)CN(C(=O)N2CCOCC2)CC3)CC1 | LdMetRS: 1.575%
* CCn1cc(NC(=O)C2CCN(Cc3ccccc3)CC2)cn1 | Mtb heat-shock: -15.67%; LdMetRS: 14.66%; Mtb growth Cornell: 20.59%
* [H][C@]12CN(c3cc(C#N)ccn3)CC[C@@]1(O)CCN(S(C)(=O)=O)C2 | Mtb heat-shock: -97.97%
* Cc1ccc(-c2nc(CN3CCCCC3Cn3cncn3)no2)cc1 (configuration not stated) | Mtb heat-shock: -5.789%; LdMetRS: 22.64%; Mtb growth Cornell: 15.52%
* Cc1ccc(CN2CCC3(CCC(=O)N3CC(=O)N(C)C)CC2)s1.O=C(O)C(F)(F)F | Mtb heat-shock: 11.8%; Mtb growth Cornell: 35.58%
* Cc1oncc1C(=O)N1CCC2(CC1)CC(c1ccccc1)C(=O)N2C (configuration not stated) | Mtb heat-shock: 7.181%; LdMetRS: -18.83%; Mtb growth Cornell: -8.006%
* Cc1nc2c(Nc3cccc(C#N)c3)nc(N)nc2n1C | Mtb heat-shock: 102.2%; LdMetRS: 5.707%; Mtb growth Cornell: 106.8%
* Cc1nc2cc(CNC(=O)C3CC(=O)N(C4CCCC4)C3)ccc2n1C (configuration not stated) | Mtb heat-shock: 7.704%; LdMetRS: 14.21%; Mtb growth Cornell: 32.06%
* [H][C@@]12CCN(C(=O)COC)C[C@@]1([H])O[C@@H](c1nc(C)no1)C2 | Mtb heat-shock: 7.705%; Mtb growth Cornell: 3.191%
* Cc1nn(C)c2nc(NCCCN3CCCC(CO)C3)sc12 (configuration not stated) | Mtb heat-shock: 5.309%; LdMetRS: 14.21%; Mtb growth Cornell: 5.889%
* CCNc1ncc(CN2CCOC(Cc3cccc(OC)c3)C2)cn1 (configuration not stated) | Mtb heat-shock: 0.543%; LdMetRS: 13.73%
* C=C(C)COc1ccccc1CNC(CC)c1ccnn1C (configuration not stated) | Mtb heat-shock: -33.93%; LdMetRS: 12.04%; Mtb growth Cornell: 10.05%

4 of the entries, repeated:

{"structure": "C[C@H]1CN(C(=O)N(C)C)C[C@@]12CCN(c1ccsc1)C2=O", "Mtb heat-shock": 0.197, "LdMetRS": 13.43, "Mtb growth Cornell": -27.37}
{"structure": "Cc1nc(C)n(CC2CCCN2CC(=O)NCCc2ccccc2)n1", "stereo": "configuration not stated", "Mtb heat-shock": 14.88, "LdMetRS": 11.33, "Mtb growth Cornell": 6.189}
{"structure": "O=C(c1ccc(O)cn1)N1CCOC(Cc2cccc(C(F)(F)F)c2)C1", "stereo": "configuration not stated", "Mtb heat-shock": -6.078, "LdMetRS": -0.6849, "Mtb growth Cornell": 43.23}
{"structure": "CN(C)c1nccc(-c2c[nH][nH]c2=O)n1", "Mtb heat-shock": -14.52, "LdMetRS": 15.29, "Mtb growth Cornell": 14.03}